Source: the supplement of paper PMC12819154, “High-throughput peptide-centric local stability assay extends protein–ligand identification to membrane proteins, tissues and bacteria” (Nature Structural & Molecular Biology, 2025)
The list shows a part of the results. Small differences around the control level are noise.

Sequences of proteins named here, by UniProt entry; tags and fusion partners are left off. A change or cut given only in a name is not applied to a line headed by its entry.
UniProt A6NNY8: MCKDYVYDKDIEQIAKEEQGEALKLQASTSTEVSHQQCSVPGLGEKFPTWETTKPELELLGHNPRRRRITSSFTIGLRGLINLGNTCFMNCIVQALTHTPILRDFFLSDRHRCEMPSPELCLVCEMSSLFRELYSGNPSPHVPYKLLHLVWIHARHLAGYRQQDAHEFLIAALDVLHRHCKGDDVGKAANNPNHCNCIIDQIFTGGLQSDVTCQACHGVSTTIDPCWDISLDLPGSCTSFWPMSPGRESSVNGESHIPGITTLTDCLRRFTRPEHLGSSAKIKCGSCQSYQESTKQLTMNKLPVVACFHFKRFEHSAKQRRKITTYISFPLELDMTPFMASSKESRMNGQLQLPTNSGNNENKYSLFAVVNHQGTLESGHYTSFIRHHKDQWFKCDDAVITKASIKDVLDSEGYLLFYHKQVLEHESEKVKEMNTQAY
UniProt A8MTY0: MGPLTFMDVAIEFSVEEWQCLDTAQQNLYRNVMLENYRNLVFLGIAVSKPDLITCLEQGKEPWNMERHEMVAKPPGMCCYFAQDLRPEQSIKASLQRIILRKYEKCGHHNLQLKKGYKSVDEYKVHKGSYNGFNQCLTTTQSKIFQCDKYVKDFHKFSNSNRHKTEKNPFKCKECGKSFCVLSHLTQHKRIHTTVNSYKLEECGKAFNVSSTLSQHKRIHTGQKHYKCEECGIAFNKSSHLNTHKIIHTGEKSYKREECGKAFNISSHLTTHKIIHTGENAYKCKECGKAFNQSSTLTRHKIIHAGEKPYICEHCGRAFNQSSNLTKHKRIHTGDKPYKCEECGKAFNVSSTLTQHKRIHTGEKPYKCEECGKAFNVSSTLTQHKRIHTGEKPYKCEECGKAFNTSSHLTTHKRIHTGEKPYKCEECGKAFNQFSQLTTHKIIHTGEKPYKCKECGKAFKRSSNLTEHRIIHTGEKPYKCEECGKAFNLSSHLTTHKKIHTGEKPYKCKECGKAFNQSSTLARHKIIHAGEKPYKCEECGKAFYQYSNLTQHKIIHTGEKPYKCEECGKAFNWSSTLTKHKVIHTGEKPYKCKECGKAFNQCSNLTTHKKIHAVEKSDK
UniProt O00459, whole entry: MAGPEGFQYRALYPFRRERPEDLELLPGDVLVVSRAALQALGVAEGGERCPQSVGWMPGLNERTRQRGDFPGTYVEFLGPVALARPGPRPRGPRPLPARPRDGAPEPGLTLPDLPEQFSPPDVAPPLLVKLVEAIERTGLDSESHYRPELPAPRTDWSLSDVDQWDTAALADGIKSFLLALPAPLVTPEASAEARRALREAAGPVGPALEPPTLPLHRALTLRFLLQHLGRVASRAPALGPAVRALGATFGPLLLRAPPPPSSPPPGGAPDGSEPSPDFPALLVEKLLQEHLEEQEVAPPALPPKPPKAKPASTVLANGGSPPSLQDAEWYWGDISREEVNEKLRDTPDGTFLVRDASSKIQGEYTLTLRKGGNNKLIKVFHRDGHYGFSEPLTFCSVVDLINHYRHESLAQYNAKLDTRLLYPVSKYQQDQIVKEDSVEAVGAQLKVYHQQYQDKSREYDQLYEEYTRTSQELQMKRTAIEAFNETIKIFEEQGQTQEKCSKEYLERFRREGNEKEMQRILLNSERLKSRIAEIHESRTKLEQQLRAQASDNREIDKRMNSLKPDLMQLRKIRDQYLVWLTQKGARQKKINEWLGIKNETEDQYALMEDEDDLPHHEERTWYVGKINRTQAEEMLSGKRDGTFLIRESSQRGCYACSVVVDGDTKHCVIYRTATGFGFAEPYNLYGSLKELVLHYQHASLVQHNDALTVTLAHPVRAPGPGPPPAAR
UniProt C9JN71: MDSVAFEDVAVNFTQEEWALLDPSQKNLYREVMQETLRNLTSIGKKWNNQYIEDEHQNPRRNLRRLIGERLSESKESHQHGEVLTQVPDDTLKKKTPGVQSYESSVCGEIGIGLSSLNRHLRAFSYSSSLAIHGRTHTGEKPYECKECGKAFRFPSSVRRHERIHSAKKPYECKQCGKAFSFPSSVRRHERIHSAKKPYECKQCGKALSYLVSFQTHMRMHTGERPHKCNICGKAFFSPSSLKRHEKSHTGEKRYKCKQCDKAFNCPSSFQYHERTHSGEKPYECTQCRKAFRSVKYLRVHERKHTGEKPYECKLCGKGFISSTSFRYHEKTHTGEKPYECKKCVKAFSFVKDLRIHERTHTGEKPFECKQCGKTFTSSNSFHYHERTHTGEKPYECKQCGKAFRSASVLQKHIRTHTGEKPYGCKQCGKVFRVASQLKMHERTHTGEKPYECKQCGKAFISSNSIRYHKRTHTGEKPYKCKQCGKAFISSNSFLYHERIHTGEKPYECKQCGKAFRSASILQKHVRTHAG
UniProt O14715, whole entry: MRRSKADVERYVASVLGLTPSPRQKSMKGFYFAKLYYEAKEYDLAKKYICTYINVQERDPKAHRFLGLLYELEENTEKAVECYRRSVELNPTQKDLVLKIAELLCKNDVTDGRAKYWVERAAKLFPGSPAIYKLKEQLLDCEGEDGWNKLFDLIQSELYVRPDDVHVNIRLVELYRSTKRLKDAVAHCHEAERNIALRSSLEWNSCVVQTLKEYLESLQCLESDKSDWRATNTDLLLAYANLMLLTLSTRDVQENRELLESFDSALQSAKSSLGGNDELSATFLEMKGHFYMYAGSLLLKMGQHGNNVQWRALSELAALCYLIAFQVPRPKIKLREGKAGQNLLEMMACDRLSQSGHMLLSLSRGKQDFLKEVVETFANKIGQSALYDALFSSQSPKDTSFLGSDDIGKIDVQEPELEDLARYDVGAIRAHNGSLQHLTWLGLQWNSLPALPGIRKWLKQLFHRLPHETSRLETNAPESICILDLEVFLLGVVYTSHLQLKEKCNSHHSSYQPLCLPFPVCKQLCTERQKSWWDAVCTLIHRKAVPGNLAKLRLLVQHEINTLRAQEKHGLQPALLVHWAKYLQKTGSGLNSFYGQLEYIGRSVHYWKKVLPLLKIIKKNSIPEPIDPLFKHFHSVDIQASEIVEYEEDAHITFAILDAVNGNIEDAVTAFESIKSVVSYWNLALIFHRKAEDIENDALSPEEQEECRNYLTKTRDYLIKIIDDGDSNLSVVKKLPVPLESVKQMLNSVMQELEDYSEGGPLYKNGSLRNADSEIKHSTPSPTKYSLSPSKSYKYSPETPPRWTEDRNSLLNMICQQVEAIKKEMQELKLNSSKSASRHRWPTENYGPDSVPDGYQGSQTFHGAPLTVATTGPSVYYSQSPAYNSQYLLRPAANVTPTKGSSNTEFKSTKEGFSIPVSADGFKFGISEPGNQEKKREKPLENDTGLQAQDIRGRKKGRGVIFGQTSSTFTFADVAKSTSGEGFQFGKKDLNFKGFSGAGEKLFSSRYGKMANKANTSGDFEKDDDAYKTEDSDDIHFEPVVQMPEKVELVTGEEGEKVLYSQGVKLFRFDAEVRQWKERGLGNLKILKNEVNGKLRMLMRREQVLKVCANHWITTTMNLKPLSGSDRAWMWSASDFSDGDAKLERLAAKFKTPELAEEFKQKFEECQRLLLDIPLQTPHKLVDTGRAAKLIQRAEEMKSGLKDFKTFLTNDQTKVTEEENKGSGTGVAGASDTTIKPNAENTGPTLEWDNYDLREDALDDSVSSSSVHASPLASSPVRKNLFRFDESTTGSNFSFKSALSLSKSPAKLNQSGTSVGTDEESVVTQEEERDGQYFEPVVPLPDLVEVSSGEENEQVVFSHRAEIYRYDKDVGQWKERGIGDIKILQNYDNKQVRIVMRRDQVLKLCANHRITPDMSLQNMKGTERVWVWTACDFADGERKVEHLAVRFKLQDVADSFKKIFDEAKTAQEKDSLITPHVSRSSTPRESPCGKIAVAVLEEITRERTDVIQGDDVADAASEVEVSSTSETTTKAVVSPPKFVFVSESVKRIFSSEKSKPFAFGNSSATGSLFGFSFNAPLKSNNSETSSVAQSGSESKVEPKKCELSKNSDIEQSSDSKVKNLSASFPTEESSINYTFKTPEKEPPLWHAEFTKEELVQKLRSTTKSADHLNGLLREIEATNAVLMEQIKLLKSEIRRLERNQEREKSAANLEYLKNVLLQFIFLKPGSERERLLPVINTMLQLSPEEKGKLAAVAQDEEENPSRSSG
UniProt O00220, whole entry: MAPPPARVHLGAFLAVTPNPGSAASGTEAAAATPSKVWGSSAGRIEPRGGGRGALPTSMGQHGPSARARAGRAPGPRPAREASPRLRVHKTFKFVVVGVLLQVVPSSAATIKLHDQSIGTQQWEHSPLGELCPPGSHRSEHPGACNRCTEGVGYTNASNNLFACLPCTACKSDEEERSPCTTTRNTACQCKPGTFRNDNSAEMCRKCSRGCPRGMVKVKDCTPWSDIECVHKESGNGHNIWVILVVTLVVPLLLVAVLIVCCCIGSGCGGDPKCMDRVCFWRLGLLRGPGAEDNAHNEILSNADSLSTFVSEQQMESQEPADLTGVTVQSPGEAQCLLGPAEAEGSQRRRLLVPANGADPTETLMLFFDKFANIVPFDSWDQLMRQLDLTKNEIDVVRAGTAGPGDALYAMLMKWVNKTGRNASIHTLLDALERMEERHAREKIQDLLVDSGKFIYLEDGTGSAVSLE
UniProt O14617: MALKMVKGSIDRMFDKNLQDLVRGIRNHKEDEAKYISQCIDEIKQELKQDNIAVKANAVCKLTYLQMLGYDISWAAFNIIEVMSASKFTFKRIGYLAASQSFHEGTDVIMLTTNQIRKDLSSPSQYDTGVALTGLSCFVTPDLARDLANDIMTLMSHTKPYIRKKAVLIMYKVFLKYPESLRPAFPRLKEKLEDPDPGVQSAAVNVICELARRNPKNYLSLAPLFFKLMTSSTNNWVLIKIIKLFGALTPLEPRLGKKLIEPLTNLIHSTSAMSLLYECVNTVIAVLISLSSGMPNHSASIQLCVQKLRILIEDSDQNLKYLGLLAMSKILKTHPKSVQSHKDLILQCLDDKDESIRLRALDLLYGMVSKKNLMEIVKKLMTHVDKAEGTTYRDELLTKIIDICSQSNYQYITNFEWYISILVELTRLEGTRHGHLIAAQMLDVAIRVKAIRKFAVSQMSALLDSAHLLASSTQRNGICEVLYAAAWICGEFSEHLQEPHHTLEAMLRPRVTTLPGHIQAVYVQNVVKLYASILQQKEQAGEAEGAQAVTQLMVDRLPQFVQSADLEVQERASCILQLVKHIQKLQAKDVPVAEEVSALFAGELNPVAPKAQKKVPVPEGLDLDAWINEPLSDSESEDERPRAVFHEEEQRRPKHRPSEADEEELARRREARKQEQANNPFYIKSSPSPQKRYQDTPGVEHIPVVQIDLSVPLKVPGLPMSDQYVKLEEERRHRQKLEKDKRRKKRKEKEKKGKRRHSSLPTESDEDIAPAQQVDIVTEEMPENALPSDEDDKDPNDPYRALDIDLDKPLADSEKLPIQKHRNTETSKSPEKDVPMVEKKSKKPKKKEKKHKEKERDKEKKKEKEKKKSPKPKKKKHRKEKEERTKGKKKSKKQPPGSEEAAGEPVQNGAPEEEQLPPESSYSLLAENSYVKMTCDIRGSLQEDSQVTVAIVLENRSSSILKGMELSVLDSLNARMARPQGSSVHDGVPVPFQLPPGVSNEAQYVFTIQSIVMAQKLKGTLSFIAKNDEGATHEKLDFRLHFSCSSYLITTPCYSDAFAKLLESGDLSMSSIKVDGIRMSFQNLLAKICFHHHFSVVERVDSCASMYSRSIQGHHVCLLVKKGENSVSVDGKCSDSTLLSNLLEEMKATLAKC

Compound: CN[C@@H]1C[C@H]2O[C@@](C)([C@@H]1OC)n1c3ccccc3c3c4c(c5c6ccccc6n2c5c31)C(=O)NC4 [staurosporine]
Test: log2 fold change of tryptic peptide abundance, ligand vs vehicle (limited proteolysis) (log2 ratio); higher = more trypsin-susceptible (destabilized)
Details: ligand concentration: 20 uM; sample: K562 cleared lysate; digestion: 4 min, 22 C (HT-PELSA RT4min, Orbitrap Astral)

Target | log2 fold change
USP27X (peptide sequence: QQDAHEFLIAALDVLHR, peptide start residue: 162) (UniProt A6NNY8) | 0.4
ZNF724 (peptide sequence: AFNVSSTLSQHK, peptide start residue: 206) (UniProt A8MTY0) | -0.575
PIK3R2 (peptide sequence: IFEEQGQTQEK, peptide start residue: 490) (UniProt O00459) | -0.429
UniProt C9JN71 (peptide sequence: AFFSPSSLKR, peptide start residue: 235) | -0.0702
UniProt O14715 (peptide sequence: YICTYINVQERDPK, peptide start residue: 48) | -0.247
TNFRSF10A (peptide sequence: NASIHTLLDALER, peptide start residue: 422) (UniProt O00220) | -0.074
AP3D1 (peptide sequence: MFDKNLQDLVR, peptide start residue: 13) (UniProt O14617) | 0.33
